Where two headings read alike, the source gives them in different places. Results are given in words; binding and its absence hold for the method and conditions named. For part of these data: A result given as binding can be weak or reduced; the word gives no strength. For part of these data: Where a sequence is shown, tags or fusion partners need not be part of it. For part of these data: In cells and extracts the contact can be indirect.
Experiments:
[1] = target: BIR3, split-ubiquitin fusion (Arabidopsis thaliana) (UniProt O04567); experiment: two-hybrid
[2] = target: BIR3-Nluc (Arabidopsis thaliana) (UniProt O04567); experiment: split reporter
[3] = target: BIR3-Nluc (Arabidopsis thaliana) (UniProt O04567); experiment: split reporter; remark: listed apart in the source
[4] = target: BIR3, split-ubiquitin fusion (Arabidopsis thaliana) (UniProt O04567); experiment: two-hybrid; remark: listed apart in the source
[5] = target: BIR1-eGFP (Arabidopsis thaliana); experiment: co-IP
[6] = target: BIR3-eGFP (Arabidopsis thaliana) (UniProt O04567); experiment: co-IP

Amino acid sequences for entries named in this document (tags omitted). A change or cut given only in a name is not applied to a line headed by its entry.
UniProt O04567: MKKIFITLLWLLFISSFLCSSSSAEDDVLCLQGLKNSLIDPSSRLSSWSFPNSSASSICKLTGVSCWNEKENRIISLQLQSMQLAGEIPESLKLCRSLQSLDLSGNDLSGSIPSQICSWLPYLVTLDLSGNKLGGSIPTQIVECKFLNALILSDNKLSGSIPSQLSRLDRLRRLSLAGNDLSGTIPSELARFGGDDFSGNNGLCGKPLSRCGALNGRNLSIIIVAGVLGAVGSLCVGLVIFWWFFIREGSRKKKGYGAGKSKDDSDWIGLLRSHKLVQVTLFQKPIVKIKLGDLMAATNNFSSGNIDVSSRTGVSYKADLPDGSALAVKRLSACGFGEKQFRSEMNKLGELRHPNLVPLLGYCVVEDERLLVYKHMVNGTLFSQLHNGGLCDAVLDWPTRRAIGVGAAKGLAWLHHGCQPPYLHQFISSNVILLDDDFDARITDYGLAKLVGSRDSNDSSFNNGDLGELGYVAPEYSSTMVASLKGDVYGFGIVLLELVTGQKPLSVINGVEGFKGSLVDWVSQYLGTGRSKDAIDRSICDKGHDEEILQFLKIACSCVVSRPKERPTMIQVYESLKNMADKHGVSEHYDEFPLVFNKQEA
UniProt Q9FKN7: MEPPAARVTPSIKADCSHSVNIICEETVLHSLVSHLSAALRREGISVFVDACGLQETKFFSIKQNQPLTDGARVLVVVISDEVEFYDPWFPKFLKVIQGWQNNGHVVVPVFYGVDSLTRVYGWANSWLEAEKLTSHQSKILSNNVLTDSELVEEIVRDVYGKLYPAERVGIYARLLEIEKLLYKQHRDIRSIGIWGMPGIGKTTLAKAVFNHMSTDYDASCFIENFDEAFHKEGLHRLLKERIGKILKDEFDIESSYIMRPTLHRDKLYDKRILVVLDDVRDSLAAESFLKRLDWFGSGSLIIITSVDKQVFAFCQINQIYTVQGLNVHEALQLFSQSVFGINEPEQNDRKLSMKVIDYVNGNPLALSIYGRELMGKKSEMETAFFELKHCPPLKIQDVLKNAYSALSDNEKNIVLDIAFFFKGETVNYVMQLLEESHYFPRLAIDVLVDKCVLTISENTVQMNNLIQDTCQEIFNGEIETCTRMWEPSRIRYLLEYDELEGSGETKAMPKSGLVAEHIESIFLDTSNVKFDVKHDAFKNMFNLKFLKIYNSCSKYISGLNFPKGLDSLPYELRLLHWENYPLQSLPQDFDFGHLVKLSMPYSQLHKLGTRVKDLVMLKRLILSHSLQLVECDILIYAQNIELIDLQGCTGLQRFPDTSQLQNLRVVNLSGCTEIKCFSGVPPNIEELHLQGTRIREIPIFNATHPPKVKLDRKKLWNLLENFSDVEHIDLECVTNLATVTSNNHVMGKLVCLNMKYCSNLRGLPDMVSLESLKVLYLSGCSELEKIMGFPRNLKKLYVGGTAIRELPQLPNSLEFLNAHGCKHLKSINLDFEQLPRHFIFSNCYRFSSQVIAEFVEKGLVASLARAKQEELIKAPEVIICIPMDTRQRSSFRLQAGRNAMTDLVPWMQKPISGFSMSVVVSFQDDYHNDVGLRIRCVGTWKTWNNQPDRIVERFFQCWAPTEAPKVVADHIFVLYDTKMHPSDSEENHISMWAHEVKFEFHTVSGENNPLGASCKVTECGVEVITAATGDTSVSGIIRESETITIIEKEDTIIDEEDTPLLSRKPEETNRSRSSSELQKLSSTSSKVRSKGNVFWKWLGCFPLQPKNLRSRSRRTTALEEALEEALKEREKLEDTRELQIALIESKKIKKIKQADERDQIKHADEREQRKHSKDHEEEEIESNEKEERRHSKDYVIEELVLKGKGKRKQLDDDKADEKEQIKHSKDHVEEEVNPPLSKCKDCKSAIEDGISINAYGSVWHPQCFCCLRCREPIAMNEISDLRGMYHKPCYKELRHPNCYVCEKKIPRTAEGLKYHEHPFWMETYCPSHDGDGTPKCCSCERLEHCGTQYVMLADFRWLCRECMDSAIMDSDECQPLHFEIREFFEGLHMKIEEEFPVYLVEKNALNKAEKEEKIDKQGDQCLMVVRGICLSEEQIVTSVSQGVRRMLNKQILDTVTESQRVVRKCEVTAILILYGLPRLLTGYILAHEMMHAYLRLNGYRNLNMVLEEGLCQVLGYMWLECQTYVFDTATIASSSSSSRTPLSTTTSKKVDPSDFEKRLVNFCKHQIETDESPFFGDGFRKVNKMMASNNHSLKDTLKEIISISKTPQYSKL

“CHS3, split-ubiquitin fusion (from UniProt Q9FKN7 1-1613)” was tested, and the binding [1] was “no binding”.

With CHS3-Cluc (from UniProt Q9FKN7 1-1613) the binding [2] was “no binding”.

B1: CSA1-Cluc (protein, UniProt F4KIF3 1-1197)
chain: MTSSSSWVKTDGETPQDQVFINFRGVELRKNFVSHLEKGLKRKGINAFIDTDEEMGQELSVLLERIEGSRIALAIFSPRYTESKWCLKELAKMKERTEQKELVVIPIFYKVQPVTVKELKGDFGDKFRELVKSTDKKTKKEWKEALQYVPFLTGIVLDEKSDEDEVINIIIRKVKEILNRRSEGPPSKCSALPPQRHQKRHETFWGIELRIKQLEEKLRFGSDETTRTIGVVGMPGIGKTTLATMLYEKWNDRFLRHVLIRDIHEASEEDGLNYLATKFLQGLLKVENANIESVQAAHEAYKDQLLETKVLVILDNVSNKDQVDALLGERNWIKKGSKILITTSDKSLMIQSLVNDTYEVPPLSDKDAIKHFIRYAFDGNEGAAPGPGQGNFPKLSKDFVHYTKGNPLALQMLGKELLGKDESHWGLKLNALDQHHNSPPGQSICKMLQRVWEGSYKALSQKEKDALLDIACFRSQDENYVASLLDSDGPSNILEDLVNKFMINIYAGKVDMHDTLYMLSKELGREATATDRKGRHRLWHHHTIIAVLDKNKGGSNIRSIFLDLSDITRKWCFYRHAFAMMRDLRYLKIYSTHCPQECESDIKLNFPEGLLLPLNEVRYLHWLKFPLKEVPQDFNPGNLVDLKLPYSEIERVWEDNKDAPKLKWVNLNHSKKLNTLAGLGKAQNLQELNLEGCTALKEMHVDMENMKFLVFLNLRGCTSLKSLPEIQLISLKTLILSGCSKFKTFQVISDKLEALYLDGTAIKELPCDIGRLQRLVMLNMKGCKKLKRLPDSLGQLKALEELILSGCSKLNEFPETWGNMSRLEILLLDETAIKDMPKILSVRRLCLNKNEKISRLPDLLNKFSQLQWLHLKYCKNLTHVPQLPPNLQYLNVHGCSSLKTVAKPLVCSIPMKHVNSSFIFTNCNELEQAAKEEIVVYAERKCHLLASALKRCDESCVPEILFCTSFPGCEMPSWFSHDAIGSMVEFELPPHWNHNRLSGIALCVVVSFKNCKSHANLIVKFSCEQNNGEGSSSSITWKVGSLIEQDNQEETVESDHVFIGYTNCLDFIKLVKGQGGPKCAPTKASLEFSVRTGTGGEATLEVLKSGFSFVFEPEENRVPSPRNDDVKGKVKINKTPSANGCFKDQAKGNESPKGQWQTYIENSSTNIPSEAHSSQKTGFNGFNGMYSVCVLYEMYSH
B1 was tested, and the binding [3] was “binds”.

B2: CSA1, split-ubiquitin fusion (protein, UniProt F4KIF3 1-1197)
chain: MTSSSSWVKTDGETPQDQVFINFRGVELRKNFVSHLEKGLKRKGINAFIDTDEEMGQELSVLLERIEGSRIALAIFSPRYTESKWCLKELAKMKERTEQKELVVIPIFYKVQPVTVKELKGDFGDKFRELVKSTDKKTKKEWKEALQYVPFLTGIVLDEKSDEDEVINIIIRKVKEILNRRSEGPPSKCSALPPQRHQKRHETFWGIELRIKQLEEKLRFGSDETTRTIGVVGMPGIGKTTLATMLYEKWNDRFLRHVLIRDIHEASEEDGLNYLATKFLQGLLKVENANIESVQAAHEAYKDQLLETKVLVILDNVSNKDQVDALLGERNWIKKGSKILITTSDKSLMIQSLVNDTYEVPPLSDKDAIKHFIRYAFDGNEGAAPGPGQGNFPKLSKDFVHYTKGNPLALQMLGKELLGKDESHWGLKLNALDQHHNSPPGQSICKMLQRVWEGSYKALSQKEKDALLDIACFRSQDENYVASLLDSDGPSNILEDLVNKFMINIYAGKVDMHDTLYMLSKELGREATATDRKGRHRLWHHHTIIAVLDKNKGGSNIRSIFLDLSDITRKWCFYRHAFAMMRDLRYLKIYSTHCPQECESDIKLNFPEGLLLPLNEVRYLHWLKFPLKEVPQDFNPGNLVDLKLPYSEIERVWEDNKDAPKLKWVNLNHSKKLNTLAGLGKAQNLQELNLEGCTALKEMHVDMENMKFLVFLNLRGCTSLKSLPEIQLISLKTLILSGCSKFKTFQVISDKLEALYLDGTAIKELPCDIGRLQRLVMLNMKGCKKLKRLPDSLGQLKALEELILSGCSKLNEFPETWGNMSRLEILLLDETAIKDMPKILSVRRLCLNKNEKISRLPDLLNKFSQLQWLHLKYCKNLTHVPQLPPNLQYLNVHGCSSLKTVAKPLVCSIPMKHVNSSFIFTNCNELEQAAKEEIVVYAERKCHLLASALKRCDESCVPEILFCTSFPGCEMPSWFSHDAIGSMVEFELPPHWNHNRLSGIALCVVVSFKNCKSHANLIVKFSCEQNNGEGSSSSITWKVGSLIEQDNQEETVESDHVFIGYTNCLDFIKLVKGQGGPKCAPTKASLEFSVRTGTGGEATLEVLKSGFSFVFEPEENRVPSPRNDDVKGKVKINKTPSANGCFKDQAKGNESPKGQWQTYIENSSTNIPSEAHSSQKTGFNGFNGMYSVCVLYEMYSH
With B2 the binding [4] was “binds”.

B3: CSA1-V5 (protein, UniProt F4KIF3 1-1197)
chain: MTSSSSWVKTDGETPQDQVFINFRGVELRKNFVSHLEKGLKRKGINAFIDTDEEMGQELSVLLERIEGSRIALAIFSPRYTESKWCLKELAKMKERTEQKELVVIPIFYKVQPVTVKELKGDFGDKFRELVKSTDKKTKKEWKEALQYVPFLTGIVLDEKSDEDEVINIIIRKVKEILNRRSEGPPSKCSALPPQRHQKRHETFWGIELRIKQLEEKLRFGSDETTRTIGVVGMPGIGKTTLATMLYEKWNDRFLRHVLIRDIHEASEEDGLNYLATKFLQGLLKVENANIESVQAAHEAYKDQLLETKVLVILDNVSNKDQVDALLGERNWIKKGSKILITTSDKSLMIQSLVNDTYEVPPLSDKDAIKHFIRYAFDGNEGAAPGPGQGNFPKLSKDFVHYTKGNPLALQMLGKELLGKDESHWGLKLNALDQHHNSPPGQSICKMLQRVWEGSYKALSQKEKDALLDIACFRSQDENYVASLLDSDGPSNILEDLVNKFMINIYAGKVDMHDTLYMLSKELGREATATDRKGRHRLWHHHTIIAVLDKNKGGSNIRSIFLDLSDITRKWCFYRHAFAMMRDLRYLKIYSTHCPQECESDIKLNFPEGLLLPLNEVRYLHWLKFPLKEVPQDFNPGNLVDLKLPYSEIERVWEDNKDAPKLKWVNLNHSKKLNTLAGLGKAQNLQELNLEGCTALKEMHVDMENMKFLVFLNLRGCTSLKSLPEIQLISLKTLILSGCSKFKTFQVISDKLEALYLDGTAIKELPCDIGRLQRLVMLNMKGCKKLKRLPDSLGQLKALEELILSGCSKLNEFPETWGNMSRLEILLLDETAIKDMPKILSVRRLCLNKNEKISRLPDLLNKFSQLQWLHLKYCKNLTHVPQLPPNLQYLNVHGCSSLKTVAKPLVCSIPMKHVNSSFIFTNCNELEQAAKEEIVVYAERKCHLLASALKRCDESCVPEILFCTSFPGCEMPSWFSHDAIGSMVEFELPPHWNHNRLSGIALCVVVSFKNCKSHANLIVKFSCEQNNGEGSSSSITWKVGSLIEQDNQEETVESDHVFIGYTNCLDFIKLVKGQGGPKCAPTKASLEFSVRTGTGGEATLEVLKSGFSFVFEPEENRVPSPRNDDVKGKVKINKTPSANGCFKDQAKGNESPKGQWQTYIENSSTNIPSEAHSSQKTGFNGFNGMYSVCVLYEMYSH
With B3 the binding [5] was “binds” and the binding [6] was “binds”.

Reference: paper doi:10.1101/2021.04.11.438637
